Literature values, collected in US11266647B2, “Method for increasing cell proliferation in pancreatic beta cells, treatment method, and composition” (ICAHN SCHOOL OF MEDICINE AT MOUNT SINAI, priority 2016, dated 2022).
Some results were stated once for a whole list of compounds, not compound by compound. At least one structure is not confirmed: it was looked up by name or label, or the drawing left a doubt. Some compounds share one range, which may span the group rather than tell each member.

Tested on: human beta cells
Details: DYRK1A inhibitor alone, previous reports; cited from earlier work

SMILES	"rates" of proliferation or labeling indices
CC(C)Oc1ccc(F)c(-c2cnc(N)c(C(=O)Nc3cnccc3N3CCC[C@@H](C(=O)O)C3)n2)c1 [GNF4877]	1.5-3 %/day
CCN1/C(=C/C(C)=O)Sc2ccc(O)cc21 [INDY]	1.5-3 %/day
